Test results published in publication PMC2935386.
These are yes or no findings as the source states them, for the method shown. Some entries that bind do so weakly or less than the wild type.

By UniProt entry, the sequences of proteins in these tests, tags left out. Where a name states a change or a piece, a line headed by the entry shows the natural chain unless it says otherwise. Residues count along the entry.
UniProt P10828, residues 102-461: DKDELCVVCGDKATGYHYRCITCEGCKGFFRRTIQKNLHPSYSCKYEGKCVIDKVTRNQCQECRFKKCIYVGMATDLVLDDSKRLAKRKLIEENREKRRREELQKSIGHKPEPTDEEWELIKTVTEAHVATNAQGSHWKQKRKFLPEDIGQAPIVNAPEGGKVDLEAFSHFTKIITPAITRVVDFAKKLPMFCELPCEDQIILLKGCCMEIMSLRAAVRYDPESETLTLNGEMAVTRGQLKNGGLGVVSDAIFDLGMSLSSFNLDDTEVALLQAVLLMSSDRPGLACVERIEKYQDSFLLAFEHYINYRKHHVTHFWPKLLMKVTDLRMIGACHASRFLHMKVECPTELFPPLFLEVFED
UniProt P19793, residues 126-462: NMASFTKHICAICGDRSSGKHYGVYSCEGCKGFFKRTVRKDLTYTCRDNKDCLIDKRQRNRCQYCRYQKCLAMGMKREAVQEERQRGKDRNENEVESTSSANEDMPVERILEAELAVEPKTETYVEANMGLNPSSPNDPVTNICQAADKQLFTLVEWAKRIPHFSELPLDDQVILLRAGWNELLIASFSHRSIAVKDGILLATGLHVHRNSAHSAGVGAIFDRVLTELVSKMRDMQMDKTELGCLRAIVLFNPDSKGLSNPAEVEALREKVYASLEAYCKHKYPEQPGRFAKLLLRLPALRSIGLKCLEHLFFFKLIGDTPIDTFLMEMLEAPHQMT

Target: human TRβ1ΔAB (TR DBD-LBD), thyroid hormone receptor β1 residues 102-461 (human) (UniProt P10828)
Assay: SEC; TR+T3 and RXR mixed at equimolar quantities, complex purified on Superdex75 10/30; eluted protein checked by non-denaturing gel electrophoresis; both purified

- binding: binds
Substance: RXRα1ΔAB (DBD-LBD), retinoid X receptor α residues 126-462 (from UniProt P19793 126-462) (domain or fragment)
